# Screening data

Data taken from PubChem BioAssay AID504749, deposited by NCATS (2011).

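A panel of P. falciparum strains inside erythrocytes is exposed to compounds for three days, then a DNA-binding dye reports the amount of parasite DNA.
Each compound was titrated across a series from about 0.000037 to 29 µM.
The number is the fitted AC50, the concentration giving a half-maximal change in signal; a lower value means higher potency, whether the curve shows a decrease or an increase.
Calls follow the curve class and fit quality: every row here is inconclusive, covering signal-raising curves and weak, poorly fitted, partial or highest-dose-only inhibition curves.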

Values are in nM.
All entries here are filed as inconclusive.
These entries are mostly ones the record files as inconclusive; other results of the assay are not listed here.
Potencies fitted to partial, single-point or poorly fitting curves are rough.
Some entries filed as inconclusive have a full curve.
The first word of each remark tells which way the curve ran; it can be opposite to the aim of the assay.

| SMILES | setting | fitted potency (nM) | remark |
|---|---|---|---|
| `CC(=C(CCOP(=O)(O)O)SC(=O)c1ccccc1)N(C=O)Cc1cnc(C)nc1N` | 7G8 | 3162 | activator, partial curve, poor fit |
| `Cc1ccnc(NS(=O)(=O)c2ccc(N)cc2)n1` | CP215 | 8087 | inhibitor, single point |
| `Cc1ccnc(NS(=O)(=O)c2ccc(N)cc2)n1` | CP315 | 2031 | inhibitor, single point |
| `CCOC(=O)N1CCC(=C2c3ccc(Cl)cc3CCc3cccnc32)CC1` | CP192 | 19011 | inhibitor, single point |
| `CCOC(=O)N1CCC(=C2c3ccc(Cl)cc3CCc3cccnc32)CC1` | CP329 | 19011 | inhibitor, single point |
| `CCOC(=O)N1CCC(=C2c3ccc(Cl)cc3CCc3cccnc32)CC1` | CP315 | 19011 | inhibitor, single point |
| `Cc1cc(O)ccc1Cl` | P94_40 | 17782 | inhibitor, single point |
| `CC1CCc2cc(F)cc3c(=O)c(C(=O)O)cn1c23` (centres unmarked) | CP291 | 7.6 | activator, full curve, poor fit |
| `CN(C)CCOC(c1ccccc1)c1ccccc1` | CP325 | 1901 | inhibitor, partial curve, poor fit |
| `CN(C)CCOC(c1ccccc1)c1ccccc1` | DIV14 | 1510 | inhibitor, partial curve |
| `CN(C)CCOC(c1ccccc1)c1ccccc1` | ATS189 | 3162 | inhibitor, single point |
| `CN(C)CCOC(c1ccccc1)c1ccccc1` | CP286 | 1412 | inhibitor, partial curve |
| `CN(C)CCOC(c1ccccc1)c1ccccc1` | CP211 | 2133 | inhibitor, partial curve, poor fit |
| `CN(C)CCOC(c1ccccc1)c1ccccc1` | CP291 | 1346 | inhibitor, partial curve, poor fit |
| `CN(C)CCOC(c1ccccc1)c1ccccc1` | CP305 | 1510 | inhibitor, partial curve, poor fit |
| `CN(C)CCOC(c1ccccc1)c1ccccc1` | CP185 | 1995 | inhibitor, single point |
| `CN(C)CCOC(c1ccccc1)c1ccccc1` | CP203 | 1694 | inhibitor, partial curve, poor fit |
| `CN(C)CCOC(c1ccccc1)c1ccccc1` | GB4 | 1694 | inhibitor, partial curve |
| `CN(C)CCOC(c1ccccc1)c1ccccc1` | CP268 | 3013 | inhibitor, single point |
| `CN(C)CCOC(c1ccccc1)c1ccccc1` | TAB109 | 2512 | inhibitor, single point |
| `CN(C)CCOC(c1ccccc1)c1ccccc1` | ATS95 | 2239 | inhibitor, single point |
| `CN(C)CCOC(c1ccccc1)c1ccccc1` | N140 | 3548 | inhibitor, single point |
| `CN(C)CCOC(c1ccccc1)c1ccccc1` | DIV30 | 1694 | inhibitor, single point |
| `CN(C)CCOC(c1ccccc1)c1ccccc1` | TAB165 | 2512 | inhibitor, single point |
| `CN(C)CCOC(c1ccccc1)c1ccccc1` | CP194 | 1901 | inhibitor, partial curve |
| `CN(C)CCOC(c1ccccc1)c1ccccc1` | PC26 | 1510 | inhibitor, partial curve, poor fit |
| `CN(C)CCOC(c1ccccc1)c1ccccc1` | CP297 | 3381 | inhibitor, partial curve, poor fit |
| `CN(C)CCOC(c1ccccc1)c1ccccc1` | C2A | 2512 | inhibitor, partial curve, poor fit |
| `CN(C)CCOC(c1ccccc1)c1ccccc1` | CP238 | 2239 | inhibitor, single point |
| `CN(C)CCOC(c1ccccc1)c1ccccc1` | Dd2 | 2239 | inhibitor, partial curve |
| `CN(C)CCOC(c1ccccc1)c1ccccc1` | CP237 | 1000 | inhibitor, full curve |
| `CN(C)CCOC(c1ccccc1)c1ccccc1` | CP265 | 2239 | inhibitor, single point |
| `CN(C)CCOC(c1ccccc1)c1ccccc1` | AS120 | 1778 | inhibitor, partial curve, poor fit |
| `CN(C)CCOC(c1ccccc1)c1ccccc1` | P93_24 | 1412 | inhibitor, partial curve |
| `CN(C)CCOC(c1ccccc1)c1ccccc1` | P94_40 | 1585 | inhibitor, partial curve |
| `CN(C)CCOC(c1ccccc1)c1ccccc1` | ICS | 1259 | inhibitor, partial curve |
| `CN(C)CCOC(c1ccccc1)c1ccccc1` | DIV17 | 2133 | inhibitor, single point |

The first 4 entries again:

{"smiles": "CC(=C(CCOP(=O)(O)O)SC(=O)c1ccccc1)N(C=O)Cc1cnc(C)nc1N", "setting": "7G8", "fitted potency (nM)": "3162", "remark": "activator, partial curve, poor fit"}
{"smiles": "Cc1ccnc(NS(=O)(=O)c2ccc(N)cc2)n1", "setting": "CP215", "fitted potency (nM)": "8087", "remark": "inhibitor, single point"}
{"smiles": "Cc1ccnc(NS(=O)(=O)c2ccc(N)cc2)n1", "setting": "CP315", "fitted potency (nM)": "2031", "remark": "inhibitor, single point"}
{"smiles": "CCOC(=O)N1CCC(=C2c3ccc(Cl)cc3CCc3cccnc32)CC1", "setting": "CP192", "fitted potency (nM)": "19011", "remark": "inhibitor, single point"}